Common to all, as to test: EMSA
Data set [1] deals with VviDREBA1-1 (VvCBF4) (Vitis vinifera cv. Autumn Royal) (UniProt A0A411JIL1). The settings on record: 500x unlabeled competitor added before labeled probe, recombinant protein, residues 1-218, protein details: N-terminal His6 (pTrcHisA), label: 3' biotin.
Data set [2] deals with T1, VviDREBA1-7 (VvCBF2) (Vitis vinifera cv. Autumn Royal) (UniProt A0A291NW80).
T1 sequence (looked up): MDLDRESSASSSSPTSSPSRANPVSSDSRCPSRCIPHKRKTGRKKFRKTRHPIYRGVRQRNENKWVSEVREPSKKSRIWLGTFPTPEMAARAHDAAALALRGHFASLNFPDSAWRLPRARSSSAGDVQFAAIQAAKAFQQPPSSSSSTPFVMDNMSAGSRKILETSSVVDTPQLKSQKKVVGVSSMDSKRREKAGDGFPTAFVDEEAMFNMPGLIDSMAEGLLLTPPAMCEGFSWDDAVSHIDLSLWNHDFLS
As to conditions: no binding or only unspecific binding; 500x unlabeled competitor added before labeled probe; recombinant protein; residues 1-253; protein details: N-terminal His6 (pTrcHisA); label: 3' biotin.

The target of data set [3] is VviDREBA1-6 (VvCBF3) (Vitis vinifera cv. Autumn Royal) (UniProt A0A291NW84). The settings on record: no binding or only unspecific binding; 500x unlabeled competitor added before labeled probe; recombinant protein; residues 1-239; protein details: N-terminal His6 (pTrcHisA); label: 3' biotin.

For at least one entry, the source does not settle the construct or the ends of the probe. For some of these results: Negatives hold for the conditions tested. For some of these results: Where a protein sequence is shown, tags need not be part of it. For some of these results: A weaker result is weaker than the reference pair of the same experiment.

The source of these data is PMC5609105.

As to “ATCGAGGCCGACATTTCCTGG (double strand) [VviDHN2 CRT probe]”, the binding result is given as “binds” in data set [1] (abolished by 500x unlabeled probe), “no binding” in data set [2] and “no binding” in data set [3].

For “TGCTTGCCGACGCCAATAGA (double strand) [VviDHN2* CRT probe (changed flanks)]”, the binding result in data set [1] is reported as “binds more weakly”.
